“And” between values parts separate entries of the source, which are not always exact repeats. Equal entries are not always repeated.
Assays:
[1] = tested on: tibialis muscles previously injected with bupivacain; test: Muscular damage by bupivacain: tibialis muscle weight; format: in vivo, rats; conditions: for weight of tibialis muscles: bupivacain (0.5%) damage, formoterol 0.3 mg/kg bw s.c. daily
Text: Muscular regeneration is a process that implies satellite cells activation, muscle precursors cells that lie adjacent to the skeletal muscle fibers. The muscle was damaged by injecting bupivacain intramuscularly (0.5%). This compound, after muscle damage, stimulates muscular regeneration.
Muscle weights are expressed as mg/100 g of initial body weight. Results are mean ± SEM for the number of animals indicated in parentheses.

Pax-7 and myogenin = test: Real time PCR of satellite cell activation markers in tibialis muscle after bupivacain damage; format: in vivo, rats; conditions: formoterol 0.3 mg/kg bw
Text: PAx-7 and myogenin. Results are mean ± SEM for the number of animals indicated in parentheses.

[2] = tested on: different proteolytic systems in gastrocnemius muscles; conditions: rat, in vivo
[3] = tested on: uncoupling proteins (UCP2 and UCP3); conditions: rat, in vivo
[4] = tested on: mice bearing Lewis lung carcinoma; conditions: mouse, in vivo
[5] = tested on: different proteolytic systems in gastrocnemius muscles; conditions: mouse, in vivo

COc1ccc(C[C@H](C)NC[C@@H](O)c2ccc(O)c(NC=O)c2)cc1 (racemic) [formoterol]
weight of tibialis muscles ([1]; 7 days of treatment (C+B+Fd7)): 297 ± 13 † mg/100 g of initial body weight
weight of tibialis muscles ([1]; 14 days of treatment (C+B+Fd14)): 304 ± 10 mg/100 g of initial body weight
recovery of the muscle weight ([1]; compared with bupivacain alone, result in words): higher recovery
Myogenin gene expression (Pax-7 and myogenin; 7 days of treatment): 131 ± 49
Pax-7 gene expression (Pax-7 and myogenin; 7 days of treatment): 147 ± 10
Myogenin gene expression (Pax-7 and myogenin; 14 days of treatment): 190 ± 58
Pax-7 gene expression (Pax-7 and myogenin; 14 days of treatment): 203 ± 4
lysosomal cathepsin B expression [2]: decreased
UCP2 mRNA [3]: 106 ± 7 and 212 ± 31
adipose tissues weight: brown (interscapular) [4]: 249 ± 6 mg/100 g of initial body weight and 153 ± 13 † *** mg/100 g of initial body weight
brown adipose tissue mass [4]: increase
carcass weight [4]: 87 ± 1 g/100 g of initial body weight and 73 ± 2 g/100 g of initial body weight
increase in gastrocnemius weight [4]: 19%
increase in soleus weight [4]: 28%
increase in tibialis weight [4]: 13%
muscle weight: EDL [4]: 42 ± 2 mg/100 g of initial body weight and 40 ± 2 mg/100 g of initial body weight
muscle weight: gastrocnemius [4]: 669 ± 13 mg/100 g of initial body weight and 548 ± 13 †† *** mg/100 g of initial body weight
muscle weight: heart [4]: 462 ± 31 mg/100 g of initial body weight and 496 ± 40 mg/100 g of initial body weight
muscle weight: soleus [4]: 36 ± 1 mg/100 g of initial body weight and 36 ± 2 mg/100 g of initial body weight
muscle weight: tibialis [4]: 217 ± 4 mg/100 g of initial body weight and 169 ± 3 †† *** mg/100 g of initial body weight
protective effect on cardiac muscle weight [4]: 24%
protective effect on gastrocnemius weight [4]: 11%
protective effect on soleus weight [4]: 56%
protective effect on tibialis weight [4]: 11%
tumor weight [4]: 4.58 ± 0.3 g
weight of the solid tumor [4]: did not alter
white adipose tissue mass [4]: did not alter
slight increase in cathepsin B mRNA content by tumor [5]: not reverted

From patent publication EP1818052A1 (Acacia Pharma Limited, priority 2004, dated 2006)
